Values quoted from earlier work in US20240024287A1, “APPLICATION OF ANLE138B IN DRUG FOR IMPROVING DIET-INDUCED INSULIN RESISTANCE” (The First Affiliated Hospital of Shantou University Medical …, priority 2022, published 2024).
The name of at least one read-out is uncertain.

Conditions: background statement; cited from earlier work

## Brc1cccc(-c2cc(-c3ccc4c(c3)OCO4)n[nH]2)c1 [Anle138b]
  Blood-brain barrier permeability: high
